Data source: PubChem BioAssay AID602196 (INSERM, 2012)

- Test: 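Modifiers of cisplatin sensitivity in A549 cells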
- System: human A549 lung cancer cells
- Knock-down reagent: siRNA pair against human genes
- Duration: 48 h transfection before cisplatin; time from cisplatin to read-out not stated
- Conditions: cisplatin at a dose killing half of control-siRNA cells; exact dose and duration not given
- Measured: 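Cisplatin cell death as a shift from the 50% death seen with control siRNA; siRNAs toxic or growth-blocking alone scored 0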
- Scale: two-siRNA summed score (-2 to +2): higher = both siRNAs protect from cisplatin killing; -2 means both sensitise
- Rule for the call: 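siRNAs harmful alone (LDH or WST-1) get 0; others get +1 for less and -1 for more cisplatin killing; genes are active when the two siRNAs give the same sign, summing to ±2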
- Meaning of the calls: active = both siRNAs shift cisplatin killing the same way; inactive = no consistent shift, or siRNA harmful alone
Shown is a random part of about 23,000 deposited reagents. 455 of all reagents (2%) were called active. 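Active includes both protection and sensitisation; some change values fall well beyond the stated -50 to +50 range.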 Not all columns of the deposit are shown. Not stated in the record: the amount of reagent.

| Target gene | two-siRNA summed score (-2 to +2) | call |
| --- | --- | --- |
| DNAJB14 | -1 | inactive |
| SIGLEC1 | 0 | inactive |
| MANBA | 0 | inactive |
| FBXO44 | 0 | inactive |
| PKD2L2 | -1 | inactive |
| FLRT2 | 0 | inactive |
| ADGRE3 | 1 | inactive |
| LOC440155 | 2 | active |
| PPP1CA | 0 | inactive |
| LOC442595 | 0 | inactive |
| EREG | 0 | inactive |
| PLAAT2 | 0 | inactive |
| LINC00639 | 0 | inactive |
| LOC440371 | 0 | inactive |
| LOC388406 | 1 | inactive |
| PCNT | 0 | inactive |
| LOC341720 | 0 | inactive |
| CHRNA2 | 0 | inactive |
| C10orf120 | 0 | inactive |
| ASCL2 | 2 | active |
| LOC339809 | 1 | inactive |
| LOC256453 | 0 | inactive |
| TJP3P1 | 1 | inactive |
| LYPD1 | 1 | inactive |
| FOXP3 | 0 | inactive |
| POLD2 | 0 | inactive |
| LOC401860 | 2 | active |
| SEC62 | 1 | inactive |
| PRICKLE4 | 0 | inactive |
| OVCH1 | 1 | inactive |
| MALSU1 | 0 | inactive |
| GPBP1L1 | -1 | inactive |
| MT4 | 0 | inactive |
| GNA15 | 0 | inactive |
| COL16A1 | 0 | inactive |
| QNG1 | 0 | inactive |
| HCFC1 | 0 | inactive |
| LOC121952 | 0 | inactive |
| TPM4 | 0 | inactive |
| LOC440562 | 0 | inactive |
| MRFAP1L1 | 0 | inactive |
| CBX7 | 1 | inactive |
| LCTL | 0 | inactive |
| ULK3 | 1 | inactive |
| CYYR1 | 0 | inactive |
| POLA1 | 0 | inactive |
| LOC151261 | 0 | inactive |
| HNRNPM | 0 | inactive |
| BEND4 | 0 | inactive |
| NUDT15 | 0 | inactive |
| OR6C2 | 0 | inactive |
| MTNR1B | 0 | inactive |
| PAK1IP1 | 0 | inactive |
| NCR3LG1 | 2 | active |
| LOC440127 | 0 | inactive |
| GSTM3 | 1 | inactive |
| LOC284232 | 1 | inactive |

Targets above whose target name begins with P or p:
| Target gene | two-siRNA summed score (-2 to +2) | call |
| --- | --- | --- |
| PKD2L2 | -1 | inactive |
| PPP1CA | 0 | inactive |
| PLAAT2 | 0 | inactive |
| PCNT | 0 | inactive |
| POLD2 | 0 | inactive |
| PRICKLE4 | 0 | inactive |
| POLA1 | 0 | inactive |
| PAK1IP1 | 0 | inactive |
